# Laboratory results as given in PMC12670160, “A drug-repurposing screen of FDA- and EMA-approved drugs identifies two NF-κB inhibitors active against eumycetoma” (Journal of Antimicrobial Chemotherapy, 2025).
# Where a name gives a salt, the structure may show the parent alone. About 130 (2.5%) of roughly 5,300 compounds showed an effect of 50% or more. Some of the results follow.
# Test system: M. mycetomatis strain mm55
# Conditions: primary screen, metabolic activity vs growth control; 96 h, 2 µM; inhibitor
row,Structure (SMILES),% viability
1,"O=C(NCC1(N2CCN(c3ccccc3)CC2)CCOCC1)c1cccnc1Sc1ccccc1 [ONC0003162, jnj47965567]",82.91%
2,"COc1cccc([C@@H](C)NCCCc2ccccc2Cl)c1 [ONC0003833, tecalcet]",70.66%
3,"CCn1c2ccccc2c2cc(Nc3ccnc(NCCCN4CCOCC4)n3)ccc21 [ONC0005118, ehop016]",82.01%
4,"N#C/C(=C\c1ccc(O)cc1)C(=O)O [ONC0000235, chc]",62.15%
5,"OCc1ccc(CO)o1 [ONC0001870, 25furandimethanol]",66.12%
6,"CC1(C)S[C@@H]2[C@H](NC(=O)[C@H](NC(=O)N3CCNC3=O)c3ccccc3)C(=O)N2[C@H]1C(=O)O [ONC0003154, azlocillin sodium]",67.97%
7,"Nc1nc2c(c(=O)[nH]1)C[C@@H](CCc1ccc(C(=O)N[C@@H](CCC(=O)O)C(=O)O)cc1)CN2 [ONC0005590, lometrexol]",76.56%
8,"CC(C)c1ccc2oc3nc(N)c(C(=O)O)cc3c(=O)c2c1 [ONC0000362, amlexanox]",63.62%
9,"NC(=O)c1cc[n+](CC2=C(C(=O)O)N3C(=O)[C@@H](NC(=O)[C@@H](c4ccccc4)S(=O)(=O)[O-])[C@H]3SC2)cc1 [ONC0005581, cefsulodin sodium]",106.3%
10,"CC(CCc1ccccc1)NCC(O)c1ccc(O)c(C(N)=O)c1 (stereo not shown) [ONC0002852, labetalol hydrochloride]",82.54%
11,"NC1(C(=O)N[C@@H](CCO)c2ccc(Cl)cc2)CCN(c2ncnc3[nH]ccc23)CC1 [ONC0005194, azd5363]",104.8%
12,"CCOC(=O)[C@H](CCc1ccccc1)N[C@@H](C)C(=O)N1Cc2ccccc2C[C@H]1C(=O)O [ONC0003165, quinapril]",61.99%
13,"COc1ccc(C(Cl)=C(c2ccc(OC)cc2)c2ccc(OC)cc2)cc1 [ONC0002927, chlorotrianisene]",61.69%
14,"O=c1[nH]c2cc(C(F)(F)F)c(N3CCOCC3)cc2n(CP(=O)(O)O)c1=O [ONC0003552, zk200775]",117.2%
15,"O=C(O)c1cccnc1Nc1cccc(C(F)(F)F)c1 [ONC0000560, niflumic acid]",90.46%
16,"CC1CC(OC(=O)C(O)c2ccccc2)CC(C)(C)C1 (stereo not shown) [ONC0003926, cyclandelate]",70.81%
17,"O=C(N/N=C/c1ccccc1O)c1ccccc1O [ONC0000023, scs]",61.1%
18,"O=c1ccc2ccc(OCCCCN3CCN(c4cccc5sccc45)CC3)cc2[nH]1 [ONC0001141, brexpiprazole]",76.07%
19,"CC(C)Cc1sc(N)nc1-c1ccc(P(=O)(O)O)o1 [ONC0001018, mb05032]",100.1%

row,Structure (SMILES),% viability
1,"C[N+](C)(C)CCCCCC[N+](C)(C)C [ONC0002829, hexamethonium bromide]",132.4%
2,"CCCCCCCCc1ccc(-c2ccc(C(=O)O)cc2)cc1 [ONC0003742, ac55649]",138.2%
3,"c1cc(Cc2cnc[nH]2)ccn1 [ONC0003600, immethridine]",134.1%
4,"CN(C)/N=N/c1[nH]cnc1C(N)=O [ONC0000348, dacarbazine]",78.71%
5,"CN1C[C@@H](NS(=O)(=O)N(C)C)C[C@@H]2c3cccc4c3c(cn4C)C[C@H]21 [ONC0001892, mesulerginehcl]",102.3%
6,"Cc1onc(-c2c(Cl)cccc2Cl)c1C(=O)N[C@@H]1C(=O)N2[C@@H]1SC(C)(C)[C@@H]2C(=O)O [ONC0000544, dicloxacillin sodium]",69.15%
7,"Cc1cc(NC(=O)Nc2ccc(N(C)C)cc2)c2cc(F)cc(F)c2n1 [ONC0004407, sb408124]",128.6%
8,"OC[C@H]1O[C@@H](n2cnc3c2NC=NC[C@H]3O)C[C@@H]1O [ONC0005553, pentostatin]",64.87%
9,"CN1C(C)(C)CCCC1(C)C [ONC0002861, pempidine tartrate]",118.7%
10,"Cn1cc(-c2ccc3ncc(Cc4ccc5ncccc5c4)n3n2)cn1 [ONC0005064, nvpbvu972]",95.46%
11,"COc1cnc(-c2ccc(Cn3c(CC(C)(C)C(=O)O)c(SC(C)(C)C)c4cc(OC[C@@H]5Cc6ccccc6N5C(C)=O)ccc43)cc2)nc1 [ONC0000711, am679]",69.68%
12,"Nc1ncc2c(n1)CC(c1ccco1)CC2=O (stereo not shown) [ONC0000078, nky80]",78.92%
13,"O=[N+]([O-])c1cc([N+](=O)[O-])c(/C=C/c2ccc(Cl)c(Cl)c2)cc1/C=C/c1ccc(Cl)c(Cl)c1 [ONC0003567, nsc636819]",111.7%
14,"O=c1cc(N2CCOCC2)oc2c(-c3cccc4c3sc3ccccc34)cccc12 [ONC0004358, nu7441ku57788]",136.2%
15,"COc1ccc([C@@H]2CC(=O)c3c(O)cc(O[C@@H]4O[C@H](CO[C@@H]5O[C@@H](C)[C@H](O)[C@@H](O)[C@H]5O)[C@@H](O)[C@H](O)[C@H]4O)cc3O2)cc1O [ONC0004994, hesperidin]",67.6%
16,"CO[C@H](C(=O)[C@@H](O)[C@@H](C)O)[C@@H]1Cc2cc3cc(O[C@H]4C[C@@H](O[C@H]5C[C@@H](O)[C@H](O)[C@@H](C)O5)[C@@H](O)[C@@H](C)O4)c(C)c(O)c3c(O)c2C(=O)[C@H]1O[C@H]1C[C@@H](O[C@H]2C[C@@H](O[C@H]3C[C@](C)(O)[C@H](O)[C@@H](C)O3)[C@H](O)[C@@H](C)O2)[C@H](O)[C@@H](C)O1 [ONC0003516, plicamycin mithramycin]",50.92%
17,"COc1cccc(-c2cc(NCc3ccc4c(c3)OCO4)nc(N)n2)c1 [ONC0001916, bml284]",93.59%
18,"CCN(CC)CCCCNc1ncc2cc(-c3c(Cl)cccc3Cl)c(NC(=O)NC(C)(C)C)nc2n1 [ONC0002581, pd161570]",80.33%

# Entries shown so far containing a CF3 group:
row,Structure (SMILES),% viability
14,"O=c1[nH]c2cc(C(F)(F)F)c(N3CCOCC3)cc2n(CP(=O)(O)O)c1=O [ONC0003552, zk200775]",117.2%
15,"O=C(O)c1cccnc1Nc1cccc(C(F)(F)F)c1 [ONC0000560, niflumic acid]",90.46%
